{"sequences": {"note": "Chains of the proteins cited; added tags and fusions are not shown. Lines headed by an entry give the natural chain unless they say otherwise; changes in a name come on top.", "UniProt O14746": "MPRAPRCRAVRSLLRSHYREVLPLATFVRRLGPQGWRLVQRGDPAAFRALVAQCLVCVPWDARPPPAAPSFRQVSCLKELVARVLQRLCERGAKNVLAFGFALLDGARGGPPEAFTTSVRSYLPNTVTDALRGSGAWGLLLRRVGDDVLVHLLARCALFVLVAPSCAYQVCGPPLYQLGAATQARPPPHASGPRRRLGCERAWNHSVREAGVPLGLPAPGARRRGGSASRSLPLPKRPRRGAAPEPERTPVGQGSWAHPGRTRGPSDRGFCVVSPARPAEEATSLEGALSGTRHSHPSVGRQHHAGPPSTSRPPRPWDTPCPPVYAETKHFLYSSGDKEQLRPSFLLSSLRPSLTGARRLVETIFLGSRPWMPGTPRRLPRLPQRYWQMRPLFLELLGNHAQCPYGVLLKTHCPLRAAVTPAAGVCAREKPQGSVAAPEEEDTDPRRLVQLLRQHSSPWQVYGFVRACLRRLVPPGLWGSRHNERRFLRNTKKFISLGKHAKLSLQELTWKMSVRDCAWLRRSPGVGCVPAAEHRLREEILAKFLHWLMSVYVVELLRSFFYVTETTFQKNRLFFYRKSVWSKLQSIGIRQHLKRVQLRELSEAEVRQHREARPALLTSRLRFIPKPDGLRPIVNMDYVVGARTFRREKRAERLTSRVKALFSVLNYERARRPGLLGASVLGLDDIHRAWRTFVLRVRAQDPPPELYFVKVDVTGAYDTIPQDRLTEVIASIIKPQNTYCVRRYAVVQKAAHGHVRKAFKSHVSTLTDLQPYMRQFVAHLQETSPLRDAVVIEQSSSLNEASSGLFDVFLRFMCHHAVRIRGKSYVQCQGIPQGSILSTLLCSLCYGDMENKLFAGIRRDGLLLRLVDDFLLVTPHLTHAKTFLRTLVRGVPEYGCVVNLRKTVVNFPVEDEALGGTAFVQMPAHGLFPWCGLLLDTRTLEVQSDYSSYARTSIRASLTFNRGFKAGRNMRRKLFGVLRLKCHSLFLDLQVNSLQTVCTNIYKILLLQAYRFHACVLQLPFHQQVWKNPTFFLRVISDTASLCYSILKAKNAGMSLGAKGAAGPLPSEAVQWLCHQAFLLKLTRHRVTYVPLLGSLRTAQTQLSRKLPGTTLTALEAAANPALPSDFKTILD"}, "source": "paper PMC12764492", "about": "“Therapeutic 6-thio-deoxyguanosine inhibits telomere elongation in cancer cells by inducing a non-productive stalled telomerase complex” (Nature Communications, 2025)", "key": {"[1]": {"target": "LD555-labeled telomerase catalytic core (hTERT + hTR fragments) (human) (UniProt O14746)", "test": "smFRET", "conditions": "no dNTPs, stable high FRET ~0.7; 5' biotin; amino-C6 dT at T13; protein translated in vitro; protein details: N-terminal FLAG on TERT; label: Cy5 on amino-dT at T13; single-stranded DNA"}, "[2]": {"target": "Halo-3xFLAG-telomerase (hTERT/hTR RNP) (human) (UniProt O14746)", "test": "EMSA", "conditions": "5' phosphate, EMSA: 20 mM HEPES-KOH pH 7.5, 100 mM KCl, 0.5 mM MgCl2, 0.5 mM TCEP-HCl, 0.05% IGEPAL CO-630, 8% glycerol, 50 ug/mL BSA, 30 min, 22 C, protein in a lysate after overexpression, protein details: N-terminal Halo-3xFLAG on TERT, JF-635 on Halo, label: internal fluorescein-dT at T8"}}, "note": "The exact form of at least one protein or probe is not confirmed. For some of these results: Where cells or extracts were used, other partners may take part. For some of these results: A weaker result is weaker than the reference pair of the same experiment."}
{"sequence": "TTAGGGTTAGGGTTAGGG [smFRET primer (TTAGGG)3]", "values": [{"measurement": "binding result", "setting": "[1]", "value": "binds"}]}
{"sequence": "TTCAGAGTCTGACGGCTGCTACCTACGGCCTT [EMSAscramble]", "values": [{"measurement": "binding result", "setting": "[2]; very weak binding, single-stranded DNA", "value": "binds more weakly"}]}
{"sequence": "TTCAGAGTCTGACGGTTAGGGTTAGGGTTAG [EMSAoligo1 (telomeric, 3' dG)]", "values": [{"measurement": "binding result", "setting": "[2]; 1-20 nM telomerase, 2.5 nM DNA, single-stranded DNA", "value": "binds"}]}
{"sequence": "TTCAGAGTCTGACGGTTAGGGTTAGGGTTAG [EMSAoligo2 (telomeric, 3' 6-thio-dG)]", "values": [{"measurement": "binding result", "setting": "[2]; 1-20 nM telomerase, 2.5 nM DNA, % bound not significantly different from unmodified, 3'-terminal G31 is 6-thio-dG, synthetic backbone", "value": "binds"}]}
